Earlier results in patent US20250066329A1, “PIPERIDINYLPYRIDINYLCARBONITRILE DERIVATIVES AS INHIBITORS OF GLUTAMINYL-PEPTIDE CYCLOTRANSFERASE AND GLUTAMINYL-PEPTIDE CYCLOTRANSFERASE LIKE PROTEIN” (Boehringer Ingelheim International GmbH, priority 2023, published 2025).
pIC50: −log10 of the molar value. Some results were stated once for a whole list of compounds, not compound by compound.

Amino acid sequences for entries named in this document (tags omitted). A change or cut given only in a name is not applied to a line headed by its entry.
UniProt Q9NXS2: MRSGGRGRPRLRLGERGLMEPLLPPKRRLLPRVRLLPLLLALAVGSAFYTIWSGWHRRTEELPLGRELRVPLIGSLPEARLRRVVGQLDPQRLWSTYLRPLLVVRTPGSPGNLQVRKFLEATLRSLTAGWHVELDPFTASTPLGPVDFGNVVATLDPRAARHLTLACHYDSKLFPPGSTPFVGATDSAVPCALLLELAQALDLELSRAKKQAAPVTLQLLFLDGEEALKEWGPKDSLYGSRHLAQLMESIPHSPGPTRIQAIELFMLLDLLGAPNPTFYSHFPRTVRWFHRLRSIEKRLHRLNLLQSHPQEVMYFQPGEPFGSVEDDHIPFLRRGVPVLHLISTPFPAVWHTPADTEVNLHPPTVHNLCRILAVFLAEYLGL

Biological target: isolated QPCTL (Homo sapiens, UniProt Q9NXS2)
Settings: disclosed in WO 2022/086920 [00343]; read-out: inhibitory activity on isolated QPCTL, IC50; cited from earlier work

Cc1cnnn1C1CCN(c2ncccc2-c2ccc(F)nc2)CC1 [Example 3]
pIC50: > 6.00
